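Vaccinia-infected cells with a two-color viral stage reporter; Venus fluorescence read on a plate reader; the cell line is not named here; timing not stated here. The test concentration is not given here. Percent change in Venus reporter signal; lower (more negative) values mean stronger inhibition of that viral stage.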

Values are in %. How 0% and 100% were set is not given here. Common to all entries: measured here: Venus reporter, other viral stage. Part of the compounds only, not a random draw; the main read-out is not listed here.

{"compound": "C[C@H](CO)N1C[C@H](C)[C@H](CN(C)Cc2ccc(Cl)c(Cl)c2)Oc2ccc(NC(=O)c3ccncc3)cc2C1=O", "activity change (Venus) (%)": "-40.33"}
{"compound": "COc1ccc(S(=O)(=O)N2C[C@@H](O)COC[C@H]3O[C@@H](CC(=O)NCc4ccc(Cl)c(Cl)c4)CC[C@@H]32)cc1", "activity change (Venus) (%)": "-30.29"}
{"compound": "C[C@H]1CN([C@@H](C)CO)C(=O)c2c(c3ccccc3n2C)-c2ccccc2CO[C@@H]1CN(C)Cc1ccc(F)cc1", "activity change (Venus) (%)": "-57.76"}
{"compound": "C[C@@H]1CN([C@@H](C)CO)C(=O)c2c(c3ccccc3n2C)-c2ccccc2CO[C@@H]1CN(C)S(=O)(=O)c1ccc(C(F)(F)F)cc1", "activity change (Venus) (%)": "-33.81"}
{"compound": "Cc1ccc(S(=O)(=O)Nc2ccc3c(c2)CC(=O)N([C@@H](C)CO)C[C@@H](C)[C@@H](CN(C)Cc2ccc(-c4ccccc4)cc2)O3)cc1", "activity change (Venus) (%)": "-40.78"}
{"compound": "Cn1cnc(S(=O)(=O)N2CC[C@H]3[C@H](CO)Nc4ccc(C#Cc5ccc(F)cc5)cc4[C@H]32)c1", "activity change (Venus) (%)": "-63.55"}
{"compound": "Cc1ccc(-c2ccc(C3[C@@H]4CN(C(=O)Nc5ccc(C(F)(F)F)cc5)C[C@H]3N4)cc2)cc1", "stereo": "stereo partly drawn", "activity change (Venus) (%)": "-99.81"}
{"compound": "Cc1ccc(S(=O)(=O)NCC[C@@H]2CC[C@H](NS(=O)(=O)c3ccccc3Cl)[C@@H](CO)O2)cc1", "activity change (Venus) (%)": "-36.32"}
{"compound": "C[C@@H]1CN([C@H](C)CO)S(=O)(=O)c2ccc(C#CC3CCCC3)cc2O[C@H]1CN(C)C(=O)Cc1ccccc1", "activity change (Venus) (%)": "-47.99"}
{"compound": "O=C(Nc1ccccc1)N1CC(=O)N2[C@@H](CO)[C@H](c3ccc(C#CC4CCCC4)cc3)[C@@H]2C1", "activity change (Venus) (%)": "-16.2"}
{"compound": "C[C@H]1CN([C@@H](C)CO)C(=O)Cc2cc(NC(=O)CCCCCC(=O)Nc3ccccc3N)ccc2O[C@H]1CN(C)Cc1ccccc1", "activity change (Venus) (%)": "-31.94"}
{"compound": "COc1ccccc1S(=O)(=O)N1CC[C@@H]2[C@@H](CO)N(C)c3ccc(-c4ccccc4)cc3[C@@H]21", "activity change (Venus) (%)": "-33.15"}
{"compound": "CCCC#Cc1ccc2c(c1)O[C@H](CN(C)CCC)[C@H](C)CN([C@H](C)CO)S2(=O)=O", "activity change (Venus) (%)": "-27.71"}
{"compound": "C[C@@H]1CN([C@H](C)CO)C(=O)Cc2cc(NS(=O)(=O)c3ccccc3)ccc2O[C@H]1CN(C)Cc1ccc(Cl)c(Cl)c1", "activity change (Venus) (%)": "-40.83"}
{"compound": "COc1ccc(NC(=O)Nc2ccc3c(c2)C(=O)N([C@H](C)CO)C[C@@H](C)[C@H](CN(C)Cc2ccccc2)OCCCC[C@H](C)O3)cc1", "activity change (Venus) (%)": "-61.53"}
{"compound": "O=S(=O)(c1cccc(Cl)c1)N1[C@@H]2CNC[C@H]1C2c1ccc(-c2ccncc2)cc1", "stereo": "stereo partly drawn", "activity change (Venus) (%)": "-3.056"}
{"compound": "C[C@H]1CN([C@@H](C)CO)S(=O)(=O)c2ccc(C3=CCCCC3)cc2O[C@@H]1CN(C)C(=O)Cc1ccncc1", "activity change (Venus) (%)": "-18.34"}
{"compound": "C[C@H]1CN([C@@H](C)CO)C(=O)c2cccc(NC(=O)C3CCCCC3)c2O[C@@H]1CN(C)Cc1ccccc1", "activity change (Venus) (%)": "-31.71"}
{"compound": "C[C@H](CO)N1C[C@H](C)[C@@H](CN(C)Cc2ccc(C(F)(F)F)cc2)OCCCC[C@H](C)Oc2ccc(NC(=O)c3ccncc3)cc2C1=O", "activity change (Venus) (%)": "-59.01"}
{"compound": "CN(C)C(=O)c1ccc(-c2ccc([C@H]3[C@@H](C#N)N(C(=O)C4CCC4)[C@@H]3CO)cc2)cc1", "activity change (Venus) (%)": "-29.53"}
{"compound": "C[C@@H]1CN([C@H](C)CO)C(=O)c2c(c3ccccc3n2C)-c2ccccc2CO[C@H]1CN(C)C(=O)[C@H](C)c1ccccc1", "activity change (Venus) (%)": "-27.13"}
{"compound": "C[C@H](CO)N1C[C@H](C)[C@H](CN(C)C(=O)C2CCC2)Oc2cc(C3=CCCCC3)ccc2S1(=O)=O", "activity change (Venus) (%)": "-26.99"}
{"compound": "C[C@@H]1CCCCO[C@@H](CN(C)Cc2ccc(Cl)c(Cl)c2)[C@H](C)CN([C@@H](C)CO)C(=O)c2cc(NS(=O)(=O)c3ccccc3)ccc2O1", "activity change (Venus) (%)": "-82.07"}
{"compound": "O=C(C[C@@H]1C=C[C@@H](NC(=O)CCN2CCCCC2)[C@H](CO)O1)Nc1ccc(-c2ccccc2)cc1", "activity change (Venus) (%)": "-36.02"}
{"compound": "C[C@@H]1CN([C@H](C)CO)S(=O)(=O)c2ccc(-c3ccccc3F)cc2O[C@H]1CN(C)Cc1ccncc1", "activity change (Venus) (%)": "-41.4"}
{"compound": "C[C@@H]1CCCCO[C@@H](CN(C)Cc2ccc(C(F)(F)F)cc2)[C@@H](C)CN([C@@H](C)CO)C(=O)c2cc(NS(=O)(=O)c3ccc(Cl)cc3)ccc2O1", "activity change (Venus) (%)": "-56.75"}
{"compound": "CN1c2ccc(-c3ccc(C#N)cc3)cc2[C@H]2[C@H](CCN2S(=O)(=O)c2ccc(F)cc2)[C@H]1CO", "activity change (Venus) (%)": "-31.12"}
{"compound": "COc1ccc2c3c([nH]c2c1)[C@H](CO)N(C(=O)C1CCCC1)CC31CCN(Cc2cccc(F)c2)CC1", "activity change (Venus) (%)": "-49.4"}
{"compound": "C[C@@H]1CN([C@H](C)CO)C(=O)Cc2cc(NC(=O)Nc3ccc4c(c3)OCO4)ccc2O[C@@H]1CN(C)Cc1ccc(C(F)(F)F)cc1", "activity change (Venus) (%)": "-38.39"}
{"compound": "COc1ccc2c3c(n(C)c2c1)[C@H](CO)N(C(=O)Nc1ccc(F)cc1)CC31CCN(Cc2ccccn2)CC1", "activity change (Venus) (%)": "-30.54"}
{"compound": "CN1c2ccc(-c3ccccc3F)cc2[C@@H]2[C@@H](CCN2S(=O)(=O)c2ccc(F)cc2)[C@H]1CO", "activity change (Venus) (%)": "-30.55"}

Some entries from above, unchanged:

With C[C@H]1CN([C@@H](C)CO)C(=O)Cc2cc(NC(=O)CCCCCC(=O)Nc3ccccc3N)ccc2O[C@H]1CN(C)Cc1ccccc1 the assay gave activity change (Venus) -31.94%.
With C[C@H](CO)N1C[C@H](C)[C@@H](CN(C)Cc2ccc(C(F)(F)F)cc2)OCCCC[C@H](C)Oc2ccc(NC(=O)c3ccncc3)cc2C1=O the assay gave activity change (Venus) -59.01%.
With Cn1cnc(S(=O)(=O)N2CC[C@H]3[C@H](CO)Nc4ccc(C#Cc5ccc(F)cc5)cc4[C@H]32)c1 the assay gave activity change (Venus) -63.55%.

The results are deposited in PubChem (AID1053133; Broad Institute, 2014).